{"source": "PubChem BioAssay AID330", "about": "(DTP/NCI, 2004)", "system": "P388 leukemia ip, CD2F1 mice, survival T/C", "assay": "NCI In Vivo Anticancer Drug Screen. Data for tumor model P388 Leukemia (intraperitoneal) in CD2F1 (CDF1) mice", "conditions": "T/C endpoint: median survival time, higher T/C = longer survival", "note": "The list is a part of this screen's results and no random one: it gathers tests that were run many times, whatever their T/C, doses with no T/C, and many T/C values between a quarter and a half above the control. Other doses and runs of a compound stand elsewhere. T/C: endpoint of the treated group in % of that of the vehicle group. Some doses have a count of surviving animals in place of a T/C: the source holds a T/C of zero for them, seemingly a mark for toxic or unscored doses. Some doses without a T/C left all or most animals alive at the check, yet need not have been tolerated: the source hardly ever lists a survival T/C far under the control, and the zero likely stands for such cases as well. Survivors were counted at the toxicity check, usually on the fifth day, unless a day is given; later deaths do not show. Schedule codes are those of the source, read here as Q, the interval in days (D) or hours (H), X, the number of doses. Some doses were run more than once; the results are listed from low to high. For survival time, this PubChem deposit counts one and a half times the control or more as active, and values a quarter to a half above the control carry no call in these data; other NCI protocols may use other cut-offs. Some T/C values carry the count of animals alive at the toxicity check (mostly the fifth day); without a count, all were alive then. Brackets with × count equal records among those shown. Some schedule codes hold Z or #, which are not explained here.", "data": [{"smiles": "COc1cccc2c1C(=O)c1c(O)c3c(c(O)c1C2=O)C[C@@](O)(C(=O)CO)C[C@@H]3OC1CC(N)C(O)C(C)O1", "note": "(some centres not stated)", "values": [{"measurement": "T/C", "setting": "dose: 6.7 mg/kg/injection, schedule: Q01DX001 (ip), vehicle: saline, evaluated on day 23", "result": "171 % of control"}, {"measurement": "T/C", "setting": "dose: 6.7 mg/kg/injection, schedule: Q01DX001 (ip), vehicle: saline, evaluated on day 30", "result": "98, 141 (2×), 144, 154, 162, 168 (2×), 169, 170, 171, 173, 177 (2×), 180, 181, 182, 183 (3×), 184, 185, 186 (2×), 187 (2×), 188, 189, 190, 194, 196 (2×), 197, 198, 200, 201, 203 (2×), 205 (3×), 208, 214, 215 (2×), 216, 217 (2×), 218 (2×), 228, 232, 233, 243, 254, 284 % of control"}, {"measurement": "T/C", "setting": "dose: 6.7 mg/kg/injection, schedule: Q01DX001 (ip), vehicle: saline, evaluated on day 45", "result": "156, 166, 188, 189, 200, 202, 240, 247, 252 % of control"}, {"measurement": "T/C", "setting": "dose: 6.7 mg/kg/injection, schedule: Q01DX001 (ip), vehicle: saline, evaluated on day 46", "result": "191 % of control"}, {"measurement": "T/C", "setting": "dose: 6.7 mg/kg/injection, schedule: Q01DX001 (ip), vehicle: saline, evaluated on day 47", "result": "186 and 200 % of control"}, {"measurement": "T/C", "setting": "dose: 6.7 mg/kg/injection, schedule: Q01DX001 (ip), vehicle: saline, evaluated on day 56", "result": "177 % of control"}, {"measurement": "T/C", "setting": "dose: 6.7 mg/kg/injection, schedule: Q01DX001 (ip), vehicle: saline, evaluated on day 60", "result": "169, 180, 183, 198, 198 [9 of 10 alive], 216, 271, 275, 289 % of control"}, {"measurement": "survivor count", "setting": "dose: 6.7 mg/kg/injection, schedule: Q01DX001 (ip), vehicle: saline", "result": "0 of 6"}, {"measurement": "T/C", "setting": "dose: 7.5 mg/kg/injection, schedule: Q04DX003 (ip), vehicle: saline, evaluated on day 45", "result": "119, 138, 143, 162, 184, 221 [7 of 8 alive], 227, 240, 247, 248 % of control"}, {"measurement": "T/C", "setting": "dose: 7.5 mg/kg/injection, schedule: Q04DX003 (ip), vehicle: saline, evaluated on day 60", "result": "382 % of control"}, {"measurement": "survivor count", "setting": "dose: 7.5 mg/kg/injection, schedule: Q04DX003 (ip), vehicle: saline", "result": "8 of 8"}, {"measurement": "T/C", "setting": "dose: 8.0 mg/kg/injection, schedule: Q01DX001 (ip), vehicle: Klucel (hydroxypropylcellulose) (HPC)", "result": "142 % of control"}, {"measurement": "T/C", "setting": "dose: 8.0 mg/kg/injection, schedule: Q01DX001 (ip), vehicle: saline with Tween-80", "result": "149 % of control"}, {"measurement": "T/C", "setting": "dose: 8.0 mg/kg/injection, schedule: Q01DX001 (ip), vehicle: saline, evaluated on day 3", "result": "196 % of control"}, {"measurement": "T/C", "setting": "dose: 8.0 mg/kg/injection, schedule: Q01DX001 (ip), vehicle: saline, evaluated on day 5", "result": "92, 97, 125, 132, 138, 148, 150, 158 % of control"}, {"measurement": "T/C", "setting": "dose: 8.0 mg/kg/injection, schedule: Q01DX001 (ip), vehicle: saline, evaluated on day 6", "result": "216 % of control"}, {"measurement": "T/C", "setting": "dose: 8.0 mg/kg/injection, schedule: Q01DX001 (ip), vehicle: saline, evaluated on day 7", "result": "166, 176, 197, 200 % of control"}, {"measurement": "T/C", "setting": "dose: 8.0 mg/kg/injection, schedule: Q01DX001 (ip), vehicle: saline, evaluated on day 9", "result": "150 and 157 % of control"}, {"measurement": "T/C", "setting": "dose: 8.0 mg/kg/injection, schedule: Q01DX001 (ip), vehicle: saline, evaluated on day 30", "result": "167, 200, 235 % of control"}, {"measurement": "T/C", "setting": "dose: 8.0 mg/kg/injection, schedule: Q01DX001 (ip), vehicle: saline, evaluated on day 35", "result": "181 % of control"}, {"measurement": "T/C", "setting": "dose: 8.0 mg/kg/injection, schedule: Q01DX001 (ip), vehicle: saline, evaluated on day 45", "result": "142 % of control"}, {"measurement": "T/C", "setting": "dose: 8.0 mg/kg/injection, schedule: Q01DX001 (ip), vehicle: saline, evaluated on day 60", "result": "137 and 177 % of control"}, {"measurement": "T/C", "setting": "dose: 8.0 mg/kg/injection, schedule: Q01DX001 (iv), vehicle: saline", "result": "144 % of control"}, {"measurement": "survivor count", "setting": "dose: 8.0 mg/kg/injection, schedule: Q01DX005 (ip), vehicle: water", "result": "10 of 10 and 4 of 4"}, {"measurement": "T/C", "setting": "dose: 8.0 mg/kg/injection, schedule: Q01DX009 (ip), vehicle: water, evaluated on day 5", "result": "66 % of control"}, {"measurement": "T/C", "setting": "dose: 8.0 mg/kg/injection, schedule: Q01DX009 (ip), vehicle: water, evaluated on day 30", "result": "95 and 103 % of control"}, {"measurement": "survivor count", "setting": "dose: 8.0 mg/kg/injection, schedule: Q01DX009 (ip), vehicle: water", "result": "1 of 6, 3 of 6, 4 of 6, 6 of 6"}, {"measurement": "T/C", "setting": "dose: 8.0 mg/kg/injection, schedule: Q04DX003 (ip), vehicle: saline, evaluated on day 5", "result": "83, 113, 115, 163 % of control"}, {"measurement": "T/C", "setting": "dose: 8.0 mg/kg/injection, schedule: Q04DX003 (ip), vehicle: saline, evaluated on day 8", "result": "185 % of control"}, {"measurement": "T/C", "setting": "dose: 8.0 mg/kg/injection, schedule: Q04DX003 (ip), vehicle: saline, evaluated on day 9", "result": "216 % of control"}, {"measurement": "T/C", "setting": "dose: 8.0 mg/kg/injection, schedule: Q04DX003 (ip), vehicle: saline, evaluated on day 30", "result": "127, 130, 139 [5 of 6 alive], 142, 143, 156, 157, 159, 161, 166, 169, 173, 174 (2×), 178, 181, 190, 196, 274 % of control"}, {"measurement": "T/C", "setting": "dose: 8.0 mg/kg/injection, schedule: Q04DX003 (ip), vehicle: saline, evaluated on day 45", "result": "130 [7 of 8 alive], 159, 215 % of control"}, {"measurement": "T/C", "setting": "dose: 8.0 mg/kg/injection, schedule: Q04DX003 (ip), vehicle: saline, evaluated on day 60", "result": "113 [7 of 8 alive] and 118 % of control"}, {"measurement": "T/C", "setting": "dose: 8.0 mg/kg/injection, schedule: Q04DX003 (ip), vehicle: water, evaluated on day 30, list 1 of 2", "result": "111, 115, 118, 121, 133, 137, 138, 140, 148, 155 (2×), 157, 161, 163 (3×), 164, 166, 168 (2×), 171, 174, 178, 180, 181, 182, 185, 186, 192 (2×), 200, 201, 203, 208, 215 % of control"}, {"measurement": "T/C", "setting": "dose: 8.0 mg/kg/injection, schedule: Q04DX003 (ip), vehicle: water, evaluated on day 30, list 2 of 2", "result": "105, 113, 116 [5 of 6 alive on day 9], 118, 129, 136, 137, 138, 145, 152, 155 (2×), 158, 162, 163 (3×), 166, 167, 168, 169, 173, 175, 178, 180, 182 [5 of 6 alive], 184, 185, 188, 192, 198, 200, 202, 203, 209 % of control"}, {"measurement": "T/C", "setting": "dose: 8.0 mg/kg/injection, schedule: Q04DX003 (ip), vehicle: water, evaluated on day 35", "result": "125, 142, 146, 151, 152, 154 [5 of 6 alive on day 9], 158, 166, 168, 170, 171, 177, 185, 190 % of control"}, {"measurement": "T/C", "setting": "dose: 8.0 mg/kg/injection, schedule: Q04DX003 (ip), vehicle: water, evaluated on day 40", "result": "133, 161, 163, 173, 197 % of control"}, {"measurement": "T/C", "setting": "dose: 8.0 mg/kg/injection, schedule: Q04DX003 (ip), vehicle: water, evaluated on day 45", "result": "87, 99, 111, 124, 130 [5 of 6 alive on day 9], 140 (2×), 145, 150 (2×), 151, 152, 154, 160 (4×), 161, 162 (2×), 163 (2×), 164, 165 (2×), 167, 168, 169 [2 of 3 alive], 170, 171 (3×), 171 [5 of 6 alive on day 9], 173, 174, 175, 181, 182, 187, 188, 189, 190 (2×), 192 (2×), 193, 194, 194 [5 of 6 alive], 197, 225 (2×), 301 % of control"}, {"measurement": "T/C", "setting": "dose: 8.0 mg/kg/injection, schedule: Q04DX003 (ip), vehicle: water, evaluated on day 46", "result": "95 % of control"}, {"measurement": "T/C", "setting": "dose: 8.0 mg/kg/injection, schedule: Q04DX003 (ip), vehicle: water, evaluated on day 50", "result": "130, 133, 150, 166, 192 % of control"}, {"measurement": "T/C", "setting": "dose: 8.0 mg/kg/injection, schedule: Q04DX003 (ip), vehicle: water, evaluated on day 60", "result": "120 and 165 % of control"}, {"measurement": "survivor count", "setting": "dose: 8.0 mg/kg/injection, schedule: Q04DX003 (ip), vehicle: water", "result": "2 of 3, 4 of 6, 6 of 6"}, {"measurement": "T/C", "setting": "dose: 8.0 mg/kg/injection, schedule: Q## X001 (ip), vehicle: saline", "result": "92, 97, 125, 132, 148, 150, 157 % of control"}, {"measurement": "T/C", "setting": "dose: 8.44 mg/kg/injection, schedule: Q01DX001 (iv), vehicle: saline", "result": "127 and 137 % of control"}, {"measurement": "T/C", "setting": "dose: 9.0 mg/kg/injection, schedule: Q04DX003 (ip), vehicle: saline, evaluated on day 45", "result": "336 % of control"}, {"measurement": "T/C", "setting": "dose: 9.0 mg/kg/injection, schedule: Q04DX003 (ip), vehicle: saline, evaluated on day 60", "result": "166, 174, 255, 271 % of control"}, {"measurement": "T/C", "setting": "dose: 10.0 mg/kg/injection, schedule: Q01DX001 (ip), vehicle: saline, evaluated on day 5", "result": "128 [8 of 9 alive], 162, 266, 267, 299 % of control"}, {"measurement": "T/C", "setting": "dose: 10.0 mg/kg/injection, schedule: Q01DX001 (ip), vehicle: saline, evaluated on day 7", "result": "133 and 180 % of control"}, {"measurement": "T/C", "setting": "dose: 10.0 mg/kg/injection, schedule: Q01DX001 (ip), vehicle: saline, evaluated on day 9", "result": "151 and 170 % of control"}, {"measurement": "T/C", "setting": "dose: 10.0 mg/kg/injection, schedule: Q01DX001 (ip), vehicle: saline, evaluated on day 11", "result": "139 % of control"}, {"measurement": "T/C", "setting": "dose: 10.0 mg/kg/injection, schedule: Q01DX001 (ip), vehicle: saline, evaluated on day 20", "result": "192 % of control"}, {"measurement": "T/C", "setting": "dose: 10.0 mg/kg/injection, schedule: Q01DX001 (ip), vehicle: saline, evaluated on day 23", "result": "199 % of control"}]}]}
